Experimental data taken from the supplement of paper PMC8256030.
The list shows a part of the results. Repeats in this data set agree poorly, so a single value says little.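 HEK293T cells were given each compound shortly before transfection with a reporter in which red mCherry is followed by the SARS-CoV-2 frameshift element and then GFP in the −1 frame, so GFP appears only after frameshifting.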

What follows are molecules tested on HEK293T (assay: percent viability (nuclei count) relative to control; higher = more viable cells). Conditions: 10 µM; 24 h.

Row | Compound | percent viability
1 | C[C@H](C(=O)O)c1cccc(C(=O)c2ccccc2)c1 [dexketoprofen] | 182%
2 | CC(=O)O[C@@]12CO[C@@H]1C[C@H](O)[C@@]1(C)C(=O)[C@H](O)C3=C(C)[C@@H](OC(=O)[C@H](O)[C@@H](NC(=O)OC(C)(C)C)c4ccccc4)C[C@@](O)([C@@H](OC(=O)c4ccccc4)[C@H]21)C3(C)C | 30.3%
3 | CCOc1ccccc1OCC1CNCCO1 (stereo unspecified) [viloxazine] | 334%
4 | CN(C)CCOC(C)(c1ccccc1)c1ccccn1 (stereo unspecified) | 180%
5 | COc1ccc(/C=C/C(=O)c2ccc(OC)cc2OC)cc1 [metochalcone] | 284%
6 | O=C1CN(/N=C/c2ccc(-c3ccc(Cl)c(Cl)c3)o2)C(=O)N1 [clodanolene] | 301%
